Screening data, single-dose tests

Source: ChEMBL document CHEMBL3988442, “University of Dundee, Small-Polar-MMV Screening Library” (2021).

T. brucei: 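Whole-parasite assay of Trypanosoma brucei over 72 hours; the read-out is not stated. Compounds at 30 µM. Direction is inferred from retests: higher values go with stronger inhibition. Values scatter widely below zero; nearly all retest evidence comes from the higher of the two concentrations used. Size under these conditions: about 64,000 compounds, about 940 of them at 50% or above in at least one test.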
Leishmania in macrophages: 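Cell assay of Leishmania donovani living inside macrophages; the read-out is not stated. Tested at 30 µM. Direction is inferred from retests: higher values go with stronger inhibition. About 69,000 compounds were tested under these conditions; 1.5% (about 1,000) showed 50% or more at least once.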

Values are the deposited “Percent Effect”, in %. The controls that fix the scale are not given in the record; negative values are as filed. This is an unselected part of the compounds tested. Two or more numbers in one place are separate tests of the same structure; such repeats can differ widely. A dash means the value is not listed here; it may have been measured.

compound,T. brucei,Leishmania in macrophages
O=C(Cc1cn2ccsc2n1)N(Cc1ccco1)CC1CCCO1 (stereo unspecified),-9.346%,15.84%
CC1N(c2cnn(C)c2)C(=O)COC12CCN(c1ccccn1)CC2.O=C(O)C(F)(F)F (stereo unspecified),-14.53%,24.78%
Cn1cc(N2CCC(NC(=O)c3c(F)cccc3F)C2=O)cn1 (stereo unspecified),-46.87%,-11.09%
OCCCN1CCOC(c2ccc(F)cc2)C1 (stereo unspecified),-10.86%,21.26%
COc1nc2c(cc1C(=O)N1C[C@H](N)C[C@H]1C(=O)NC(C)C)CCC2,25.14%,32.5%
CNC(=O)C(C)(C)N1CCC[C@H]1C(=O)NCCN1CCOCC1,-30.28%,7.411%
Fc1ccc(-c2nc(CNCCn3cccn3)cs2)cc1,15.62%,36.71%
CN1CCN(Cc2cn3c(n2)CN(C(=O)c2cccn2C)CC3)CC1.O=C(O)C(F)(F)F.O=C(O)C(F)(F)F,-5.62%,24.06%
Cc1[nH]c2ccc(CNC(=O)c3ccc(CN4CCCC4)o3)cc2c1C,-,12.4%
O=C(O)C(F)(F)F.O=C(O)C(F)(F)F.c1cnc(N2CCOCC3(CCCN(CC4CCOCC4)C3)C2)nc1 (stereo unspecified),-19.62%,7.487%
Cn1ccc(C(=O)Nc2nc(-c3ccc4c(c3)CCO4)cs2)cc1=O,-8.263%,32.33%
O=C(Cc1cc(-c2ccc3c(c2)OCO3)on1)NC1CCCC1,-40.53%,28.03%
NC(=O)Cn1ccnc1C1CCCN(Cc2nc3ccccc3s2)C1 (stereo unspecified),-75.49%,15.22%
COCC(=O)NC1CC2(CCN(CCF)CC2)Oc2ccccc21.O=C(O)C(F)(F)F (stereo unspecified),-5.622%,26.19%
O=C(O)C(F)(F)F.[H][C@]12CO[C@@H](CNC(=O)N(C)C)[C@@]1([H])CCN(Cc1ccc(OC)cc1)C2,-6.663%,24.32%
CN1CCN(CC2CC2)C(=O)c2cnc(N3CCOCC3)nc21,3.351%,7.325% & -10.13%
NC(=O)C1CCN(C(=O)c2ccccc2OCc2ccncc2)CC1,-18.9%,6.056%
COCCCN1CCc2cncnc2C1,13.19%,-16.96%
COCc1nc(CNc2cccc(-c3nc(C)c(C)o3)c2)cs1,-9.324%,3.012%
O=S(=O)(Cc1cc(-c2ccccc2)no1)CC1CCCO1 (stereo unspecified),-25.95%,4.203%
CCOc1ccc(Cl)c(C(=O)NCc2ccc(C(=O)NC)cc2)n1,-16.23%,19.73%
c1ccc(-c2nc(CNCC3CCCN3c3cccnn3)co2)cc1 (stereo unspecified),97.98%,28.19%
CN(C)C(=O)c1ccc2ccc(N3CCN(CC4CC4)CC3)n2c1,2.623%,12.2%
CC(C)CNC(=O)c1cc(Br)c2c(c1)OCCO2,-12.13%,23.55%
CN(Cc1ccncc1)C(=O)CCNS(=O)(=O)c1cccnc1,7.399%,20.96%
[H][C@]12CCC[C@@H](CN3CCCC3)[C@@]1([H])CN(c1cc(OC)ncn1)C2,41.65%,5.071%
O=C(O)C(F)(F)F.O=C(O)C(F)(F)F.O=C(c1cscn1)N1CCC2(CN(Cc3ccncc3)C2)C1,-8.784%,29.46%
Cc1ccc(C(F)(F)F)cc1NCC(=O)Nc1c(C)nn(C)c1C,-14.23%,13.46%
O=C(O)C(F)(F)F.O=C(O)C(F)(F)F.[H][C@@]12OCCN(Cc3ccc(C)o3)[C@@]1([H])CC[C@H]2OCc1cccnc1,-14.34%,28.54%
Cc1cc(S(=O)(=O)N2CCCc3cc(F)cc(F)c32)sc1C(=O)O,-15.88%,5.555%
O=c1[nH]c(CN2CCOC(Cn3cccn3)C2)nc2ccccc12 (stereo unspecified),4.694%,-5.985%
Cc1cc(NC(C)c2csc(C)n2)n2nc(C)c(C)c2n1 (stereo unspecified),-27.53%,31.13%
CC(=O)N1CCc2nnc(C3CCCCN3CC3CCCCC3)n2CC1 (stereo unspecified),-14.83%,2.743%
O=C(NC[C@H]1OC[C@@H](NC2CCCCC2)[C@@H]1O)c1cccs1,-13.23%,-16.63%
CCc1nc(C)c(C(=O)N2CCNCC2C(=O)Nc2ccc(C)nc2)o1 (stereo unspecified),-4.11%,9.452%
Cc1ccc(CCNc2nccc(-c3cc(C(=O)O)ccn3)n2)o1,5.778%,32.65%
O=C(O)C(F)(F)F.O=C(c1ccco1)N1CCCC2(CN(Cc3ccc(F)cc3)CCO2)C1 (stereo unspecified),6.344%,31.19%
OCC1CCCCN1CCn1ccnc1-c1nc2ccccc2[nH]1 (stereo unspecified),-15.25%,27.69%
CC(=O)N1CCCC(c2ccccn2)C1 (stereo unspecified),-37.51%,-3.931%
[H][C@@]12CN(c3ncc(Cl)cc3F)C[C@]1(C(=O)O)CN(CC1CC1)C2=O,27.47%,-21.4%
[H][C@@]12COC[C@]1(COC)CN(S(=O)(=O)c1cccnc1)C2,-34.13%,-5.571% & 13.93%
CC(C)Cn1nnnc1SC(C(=O)NCc1cccnc1)C(C)C (stereo unspecified),-4.92%,9.864%
CC(=O)N(Cc1noc(C)n1)C1CCN(Cc2ccncc2Cl)C1 (stereo unspecified),-7.423%,0.4751%
COC(=O)C(c1cc(F)ccc1F)N(C)C(=O)c1cccnc1O (stereo unspecified),35.76%,1.465%
CSCCC(NC(=O)c1ccc2ccccc2n1)C(=O)NC1CC1 (stereo unspecified),-5.979%,3.573%
CC(=O)N1CCCC1c1cc(N2CCN(CC(C)(C)C)CC2)cc(C)n1 (stereo unspecified),38.33%,14.7% & 8.907%
Cn1ccc(C(=O)NCc2cccc(Cn3ccnc3)c2)cc1=O,-12.8%,13.81%
[H][C@]12CN(C(=O)N(C)C)CCN1C[C@H](c1ccccc1)[C@H]2C(=O)OCC,-23.08%,-11.65%
COc1c(C2CCCN2C(=O)c2cnc(C)cn2)c(C)nn1C (stereo unspecified),-35.37%,-10.72%
CCc1noc(CNc2ccc(CC(=O)N3CCSCC3)cc2)n1,-22.05%,2.44%
CCn1cc(CNC(=O)CC(C)C)cn1,-26.8%,-1.792%
Cc1nc(CC(=O)N2CCCN(c3ccc(C#N)cc3)CC2)cs1,7.071%,25.81%
CN(C)c1ccc(CCNC(=O)NCc2ccc(N(C)C)nc2)cc1,3.002%,17.33%
[H][C@]12CCC[C@@]1(CO)CN(C(=O)c1cc(C)nc3ccc(C)cc13)C2,-53.72%,-13.25%
Cc1nc(N2CCCC2)nc2c1CCN(C(=O)C1CCC1)CC2,-44.45%,-5.332%
Cc1nc2cc(=O)[nH]n2c(C)c1CC(=O)Nc1cnn(C)c1,-33.17%,-22.92%
CCOc1ccccc1-c1noc(CN2CCOC(CN(C)C)C2)n1 (stereo unspecified),5.345%,5.097%
CN(C(=O)C1(C#N)CCCCC1)c1nccs1,-1.828%,12.59%
N#Cc1c(F)cccc1Nc1cnn(CC(=O)N2CCOCC2)c1,-29.27%,-2.718%

For reference, 4 entries once more:

compound	T. brucei	Leishmania in macrophages
O=C(NC[C@H]1OC[C@@H](NC2CCCCC2)[C@@H]1O)c1cccs1	-13.23%	-16.63%
CC(C)CNC(=O)c1cc(Br)c2c(c1)OCCO2	-12.13%	23.55%
CCn1cc(CNC(=O)CC(C)C)cn1	-26.8%	-1.792%
Cc1ccc(CCNc2nccc(-c3cc(C(=O)O)ccn3)n2)o1	5.778%	32.65%